These are yes or no findings as the source states them, for the method shown.
Tests used:
[1] = molecular target: T1, CCL5_HUMAN (human), P13501; assay: BLI, empty cell the 12th table, row 75, column 4; details: remark: other sources report otherwise
T1 chain: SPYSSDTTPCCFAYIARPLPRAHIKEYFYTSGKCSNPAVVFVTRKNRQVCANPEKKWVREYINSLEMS

By UniProt entry, the sequences of proteins in these tests, tags left out. Residues count along the entry.
UniProt Q9NRJ3, residues 23-127: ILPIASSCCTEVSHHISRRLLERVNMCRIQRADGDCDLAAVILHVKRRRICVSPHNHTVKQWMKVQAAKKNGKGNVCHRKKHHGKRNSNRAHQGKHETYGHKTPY
UniProt O14625, residues 22-94: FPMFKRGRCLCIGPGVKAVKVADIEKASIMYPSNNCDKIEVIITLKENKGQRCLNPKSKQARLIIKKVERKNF
UniProt Q07325, residues 23-125: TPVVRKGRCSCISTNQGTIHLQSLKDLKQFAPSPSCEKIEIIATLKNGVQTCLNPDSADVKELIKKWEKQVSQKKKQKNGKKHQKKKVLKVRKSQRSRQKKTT
UniProt P42830, residues 41-114: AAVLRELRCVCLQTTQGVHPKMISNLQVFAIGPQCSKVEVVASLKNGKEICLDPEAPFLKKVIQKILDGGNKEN
UniProt P19876, residues 35-107: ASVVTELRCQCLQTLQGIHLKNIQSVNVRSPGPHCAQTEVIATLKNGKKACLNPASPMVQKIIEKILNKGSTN
UniProt P55773, residues 22-120: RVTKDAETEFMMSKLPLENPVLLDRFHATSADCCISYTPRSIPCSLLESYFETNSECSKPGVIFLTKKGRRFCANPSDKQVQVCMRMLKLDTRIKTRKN
UniProt P02775, residues 59-128: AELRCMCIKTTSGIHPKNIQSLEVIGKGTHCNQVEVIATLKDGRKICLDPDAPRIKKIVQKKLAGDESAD
UniProt P80162, residues 38-114: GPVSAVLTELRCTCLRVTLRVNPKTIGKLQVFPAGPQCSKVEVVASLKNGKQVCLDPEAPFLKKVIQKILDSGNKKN
UniProt P02776, residues 32-101: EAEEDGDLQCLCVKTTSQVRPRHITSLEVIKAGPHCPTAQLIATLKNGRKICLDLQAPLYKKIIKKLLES
UniProt Q9Y4X3, residues 25-112: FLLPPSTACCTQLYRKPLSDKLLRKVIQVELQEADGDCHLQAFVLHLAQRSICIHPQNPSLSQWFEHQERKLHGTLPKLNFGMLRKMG
UniProt O00585, residues 24-134: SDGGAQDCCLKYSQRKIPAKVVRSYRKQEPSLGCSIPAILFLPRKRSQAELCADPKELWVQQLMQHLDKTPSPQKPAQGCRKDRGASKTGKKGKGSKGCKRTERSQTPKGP
UniProt O00175, residues 27-104: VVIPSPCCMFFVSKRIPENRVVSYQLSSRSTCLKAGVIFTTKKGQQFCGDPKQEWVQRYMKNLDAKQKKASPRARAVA
UniProt O43927, residues 23-109: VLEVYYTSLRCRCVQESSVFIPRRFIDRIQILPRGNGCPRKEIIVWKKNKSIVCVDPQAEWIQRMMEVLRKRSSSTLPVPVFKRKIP
UniProt P09341, residues 35-107: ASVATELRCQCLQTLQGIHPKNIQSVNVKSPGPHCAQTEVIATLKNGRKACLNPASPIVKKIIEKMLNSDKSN
UniProt O95715, residues 35-111: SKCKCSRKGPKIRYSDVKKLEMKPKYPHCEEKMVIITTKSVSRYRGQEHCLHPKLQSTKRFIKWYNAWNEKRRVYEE
UniProt P19875, residues 35-107: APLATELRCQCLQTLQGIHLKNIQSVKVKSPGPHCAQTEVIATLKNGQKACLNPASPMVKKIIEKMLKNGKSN
UniProt P48061, residues 22-89: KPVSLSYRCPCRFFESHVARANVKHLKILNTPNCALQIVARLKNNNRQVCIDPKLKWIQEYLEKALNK
UniProt P78556, residues 27-96: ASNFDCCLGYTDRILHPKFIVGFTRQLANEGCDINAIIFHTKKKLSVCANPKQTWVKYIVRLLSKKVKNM
UniProt P10145, residues 28-99: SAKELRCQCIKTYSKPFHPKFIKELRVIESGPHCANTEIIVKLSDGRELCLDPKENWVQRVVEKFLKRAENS
UniProt P02778, residues 22-98: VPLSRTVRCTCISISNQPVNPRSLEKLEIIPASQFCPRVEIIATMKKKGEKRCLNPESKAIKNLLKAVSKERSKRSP

[2] = molecular target: T2, CX3CL1_HUMAN (human), P78423; assay: BLI, empty cell the 12th table, row 95, column 4; details: remark: other sources report otherwise
T2 chain: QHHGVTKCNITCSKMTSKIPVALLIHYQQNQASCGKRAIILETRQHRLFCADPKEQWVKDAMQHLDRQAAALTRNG

[3] = molecular target: T3, CCL19_HUMAN (human), Q99731; assay: BLI, empty cell the 12th table, row 85, column 4; details: remark: other sources report otherwise
T3 chain: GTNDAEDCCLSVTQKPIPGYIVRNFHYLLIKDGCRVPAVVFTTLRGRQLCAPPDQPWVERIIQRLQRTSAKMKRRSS

[4] = molecular target: T4, CCL15_HUMAN (human), Q16663; assay: BLI, empty cell the 12th table, row 81, column 3; details: remark: other sources report otherwise
T4 chain: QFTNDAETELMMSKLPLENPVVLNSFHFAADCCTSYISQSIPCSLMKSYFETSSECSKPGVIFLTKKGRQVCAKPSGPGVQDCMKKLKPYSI

[5] = molecular target: CCL28_HUMAN (human) (UniProt Q9NRJ3); assay: BLI, empty cell the 12th table, row 94, column 4
[6] = molecular target: CXCL11_HUMAN (human) (UniProt O14625); assay: BLI, empty cell the 12th table, row 106, column 4
[7] = molecular target: CXCL9_HUMAN (human) (UniProt Q07325); assay: BLI, empty cell the 12th table, row 104, column 4
[8] = molecular target: CCL15_HUMAN (human) (UniProt Q16663); assay: BLI, empty cell the 12th table, row 81, column 4
[9] = molecular target: CXCL5_HUMAN (human) (UniProt P42830); assay: BLI, empty cell the 12th table, row 100, column 4
[10] = molecular target: CXCL3_HUMAN (human) (UniProt P19876); assay: BLI, empty cell the 12th table, row 98, column 4
[11] = molecular target: CCL23_HUMAN (human) (UniProt P55773); assay: BLI, empty cell the 12th table, row 89, column 4
[12] = molecular target: CXCL7_HUMAN (human) (UniProt P02775); assay: BLI, empty cell the 12th table, row 102, column 4
[13] = molecular target: CXCL6_HUMAN (human) (UniProt P80162); assay: BLI, empty cell the 12th table, row 101, column 4
[14] = molecular target: CXCL4_HUMAN (human) (UniProt P02776); assay: BLI, empty cell the 12th table, row 99, column 4
[15] = molecular target: CCL27_HUMAN (human) (UniProt Q9Y4X3); assay: BLI, empty cell the 12th table, row 93, column 4
[16] = molecular target: CCL21_HUMAN (human) (UniProt O00585); assay: BLI, empty cell the 12th table, row 87, column 4
[17] = molecular target: CCL24_HUMAN (human) (UniProt O00175); assay: BLI, empty cell the 12th table, row 90, column 4
[18] = molecular target: CXCL13_HUMAN (human) (UniProt O43927); assay: BLI, empty cell the 12th table, row 108, column 4
[19] = molecular target: CXCL1_HUMAN (human) (UniProt P09341); assay: BLI, empty cell the 12th table, row 96, column 4
[20] = molecular target: T5, XCL1_HUMAN (human) (UniProt P47992); assay: BLI, empty cell the 12th table, row 113, column 4
T5 sequence: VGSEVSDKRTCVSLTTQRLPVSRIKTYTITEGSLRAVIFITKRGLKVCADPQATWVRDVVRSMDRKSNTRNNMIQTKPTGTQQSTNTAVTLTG

[21] = molecular target: CXCL14_HUMAN (human) (UniProt O95715); assay: BLI, empty cell the 12th table, row 109, column 4
[22] = molecular target: CXCL2_HUMAN (human) (UniProt P19875); assay: BLI, empty cell the 12th table, row 97, column 4
[23] = molecular target: CXCL9_HUMAN (human) (UniProt Q07325); assay: BLI, empty cell the 12th table, row 104, column 3
[24] = molecular target: CCL23_HUMAN (human) (UniProt P55773); assay: BLI, empty cell the 12th table, row 89, column 3
[25] = molecular target: CX3CL1_HUMAN (human) (UniProt P78423); assay: BLI, empty cell the 12th table, row 95, column 3
[26] = molecular target: CXCL12_HUMAN (human) (UniProt P48061); assay: BLI, empty cell the 12th table, row 107, column 3
[27] = molecular target: CXCL6_HUMAN (human) (UniProt P80162); assay: BLI, empty cell the 12th table, row 101, column 3
[28] = molecular target: CXCL5_HUMAN (human) (UniProt P42830); assay: BLI, empty cell the 12th table, row 100, column 3
[29] = molecular target: CXCL14_HUMAN (human) (UniProt O95715); assay: BLI, empty cell the 12th table, row 109, column 3
[30] = molecular target: CXCL11_HUMAN (human) (UniProt O14625); assay: BLI, empty cell the 12th table, row 106, column 3
[31] = molecular target: CCL21_HUMAN (human) (UniProt O00585); assay: BLI, empty cell the 12th table, row 87, column 3
[32] = molecular target: CXCL4_HUMAN (human) (UniProt P02776); assay: BLI, empty cell the 12th table, row 99, column 3
[33] = molecular target: CCL24_HUMAN (human) (UniProt O00175); assay: BLI, empty cell the 12th table, row 90, column 3
[34] = molecular target: T5, XCL1_HUMAN (human); assay: BLI, empty cell the 12th table, row 113, column 3
[35] = molecular target: CCL20_HUMAN (human) (UniProt P78556); assay: BLI, empty cell the 12th table, row 86, column 3
[36] = molecular target: CXCL13_HUMAN (human) (UniProt O43927); assay: BLI, empty cell the 12th table, row 108, column 3
[37] = molecular target: CXCL8_HUMAN (human) (UniProt P10145); assay: BLI, empty cell the 12th table, row 103, column 3
[38] = molecular target: CCL19_HUMAN (human) (UniProt Q99731); assay: BLI, empty cell the 12th table, row 85, column 3
[39] = molecular target: CXCL3_HUMAN (human) (UniProt P19876); assay: BLI, empty cell the 12th table, row 98, column 3
[40] = molecular target: CCL28_HUMAN (human) (UniProt Q9NRJ3); assay: BLI, empty cell the 12th table, row 94, column 3
[41] = molecular target: CXCL2_HUMAN (human) (UniProt P19875); assay: BLI, empty cell the 12th table, row 97, column 3
[42] = molecular target: CXCL1_HUMAN (human) (UniProt P09341); assay: BLI, empty cell the 12th table, row 96, column 3
[43] = molecular target: CXCL10_HUMAN (human) (UniProt P02778); assay: BLI, empty cell the 12th table, row 105, column 3
[44] = molecular target: CXCL7_HUMAN (human) (UniProt P02775); assay: BLI, empty cell the 12th table, row 102, column 3
[45] = molecular target: CCL27_HUMAN (human) (UniProt Q9Y4X3); assay: BLI, empty cell the 12th table, row 93, column 3

Measured: binding

B1: P546_AMBCA, A0A023FBW7 22-118 (protein)
chain: ENTQQEEEDYDYGTDTCPFPVLANKTNKAKFVGCHQKCNGGDQKLTDGTACYVVERKVWDRMTPMLWYSCPLGECKNGVCEDLRKKEECRKGNGEEK
no binding (tested: 300 nM): [1] | [2] | [3]

B2: P974_AMBCA, A0A023FDY8 22-118 (protein)
chain: ENTQQEEQDYDYGTDTCPFPVLANKTNKAKFVGCHQKCNGGDQKLTDGTACYVVERKVWDRMTPMLWYECPLGECKNGVCEDLRKKEDCRKGNGEEK
no binding (tested: 300 nM): [4]

B3: P546_AMBCA (protein)
chain: ENTQQEEEDYDYGTDTCPFPVLANKTNKAKFVGCHQKCNGGDQKLTDGTACYVVERKVWDRMTPMLWYSCPLGECKNGVCEDLRKKEECRKGNGEEK
no binding (tested: 300 nM): [5] | [6] | [7] | [8] | [9] | [10] | [11] | [12] | [13] | [14] | [15] | [16] | [17] | [18] | [19] | [20] | [21] | [22]

B4: P974_AMBCA (protein)
chain: ENTQQEEQDYDYGTDTCPFPVLANKTNKAKFVGCHQKCNGGDQKLTDGTACYVVERKVWDRMTPMLWYECPLGECKNGVCEDLRKKEDCRKGNGEEK
no binding (tested: 300 nM): [23] | [24] | [25] | [26] | [27] | [28] | [29] | [30] | [31] | [32] | [33] | [34] | [35] | [36] | [37] | [38] | [39] | [40] | [41] | [42] | [43] | [44] | [45]
